Results taken from the supplement of paper PMC6078165.
± gives the standard deviation of the averaged measurements. Values are relative to the signal before dosing, not to a vehicle control; the signal also falls without drug.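 Fibroblast labels name human fibroblasts: mostly primary ones from tissues such as uterus (C12385, HUF), lung (H6013), bone (Hs27A), adrenal (HADF) and skin (WS1), plus mammary HMF and breast cancer-associated Hs343T. The cancer cells are basal-like or mesenchymal-like triple-negative breast cancer lines. The paper calls a changed response a hit when it shifts by more than 3x the replicate standard deviation. The tissue of the other fibroblasts is not given here.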

System: BT20
Experiment: relative JC-1 red fluorescence (viability) vs pre-drug, coculture with fibroblast (fraction); higher = more viable cancer cells
Experimental: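 JC-1 labelled TNBC cells cocultured 1:1 (1,500 cells each) with CellTrace Violet stained primary or stromal fibroblasts in 384-well plates in FluoroBrite medium, treated with one of 42 anticancer drugs at 0.1, 1, 10 or 100 uM. JC-1 red fluorescence (mitochondrial integrity in cancer cells only) was read by plate reader every 8 h for 72 h. Values are normalised to each well's pre-drug value. The stock of one drug was tenfold lower, so its dose labels may be too high.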

O=C(CCCCCCC(=O)Nc1ccccc1)NO [Vorinostat]
relative JC-1 red fluorescence
Details | 8 h | 16 h | 24 h | 32 h | 40 h | 48 h | 56 h | 64 h | 72 h
0.1 µM, coculture fibroblast: C12385 | 0.913 ± 0.021 | 0.808 ± 0.009 | 0.739 ± 0.0084 | 0.6587 ± 0.0032 | 0.5929 ± 0.0039 | 0.5536 ± 0.0055 | 0.5242 ± 0.0034 | 0.5054 ± 0.0018 | 0.4853 ± 0.0007
0.1 µM, coculture fibroblast: H6013 | 0.9 ± 0.018 | 0.885 ± 0.041 | 0.876 ± 0.11 | 0.844 ± 0.15 | 0.822 ± 0.17 | 0.813 ± 0.18 | 0.832 ± 0.21 | 0.819 ± 0.21 | 0.806 ± 0.22
0.1 µM, coculture fibroblast: H6019 | 0.8479 ± 0.003 | 0.774 ± 0.022 | 0.739 ± 0.066 | 0.691 ± 0.071 | 0.649 ± 0.094 | 0.627 ± 0.11 | 0.599 ± 0.12 | 0.573 ± 0.12 | 0.556 ± 0.13
0.1 µM, coculture fibroblast: H6076 | 0.814 ± 0.066 | 0.891 ± 0.014 | 0.771 ± 0.02 | 0.716 ± 0.0081 | 0.6702 ± 0.00072 | 0.633 ± 0.011 | 0.609 ± 0.016 | 0.598 ± 0.021 | 0.579 ± 0.019
0.1 µM, coculture fibroblast: H6231 | 0.821 ± 0.052 | 0.915 ± 0.025 | 0.77 ± 0.021 | 0.698 ± 0.017 | 0.647 ± 0.017 | 0.597 ± 0.014 | 0.551 ± 0.01 | 0.524 ± 0.015 | 0.497 ± 0.018
0.1 µM, coculture fibroblast: HADF | 0.99035 ± 0.00067 | 0.874 ± 0.025 | 0.815 ± 0.067 | 0.782 ± 0.081 | 0.749 ± 0.091 | 0.705 ± 0.099 | 0.7 ± 0.11 | 0.691 ± 0.12 | 0.678 ± 0.13
0.1 µM, coculture fibroblast: HCFa | 0.888 ± 0.0096 | 0.818 ± 0.015 | 0.7579 ± 0.0027 | 0.6861 ± 7.5e-05 | 0.628 ± 0.0099 | 0.59 ± 0.017 | 0.564 ± 0.039 | 0.535 ± 0.045 | 0.496 ± 0.046
0.1 µM, coculture fibroblast: HCPF | 0.912 ± 0.12 | 0.913 ± 0.054 | 0.827 ± 0.018 | 0.772 ± 0.014 | 0.703 ± 0.012 | 0.6442 ± 0.004 | 0.597 ± 0.019 | 0.583 ± 0.019 | 0.539 ± 0.016
0.1 µM, coculture fibroblast: HHSteC | 0.937 ± 0.033 | 0.9022 ± 0.0029 | 0.868 ± 0.012 | 0.791 ± 0.012 | 0.738 ± 0.016 | 0.69 ± 0.015 | 0.651 ± 0.0089 | 0.624 ± 0.019 | 0.593 ± 0.02
0.1 µM, coculture fibroblast: HMF | 0.819 ± 0.12 | 0.844 ± 0.037 | 0.741 ± 0.017 | 0.679 ± 0.017 | – | 0.58 ± 0.0079 | 0.5406 ± 0.0028 | 0.51503 ± 0.00015 | 0.49342 ± 0.00014
0.1 µM, coculture fibroblast: HPFa | 0.949 ± 0.022 | 0.847 ± 0.05 | 0.819 ± 0.059 | 0.73 ± 0.062 | 0.687 ± 0.063 | 0.638 ± 0.064 | 0.604 ± 0.066 | 0.569 ± 0.058 | 0.519 ± 0.052
0.1 µM, coculture fibroblast: HUF | 0.935 ± 0.0084 | 0.8225 ± 0.00094 | 0.781 ± 0.015 | 0.699 ± 0.0068 | 0.634 ± 0.017 | 0.583 ± 0.0075 | 0.557 ± 0.019 | 0.541 ± 0.022 | 0.526 ± 0.027
0.1 µM, coculture fibroblast: Hs5 | 0.881 ± 0.13 | 0.901 ± 0.047 | 0.794 ± 0.033 | 0.739 ± 0.016 | 0.6845 ± 0.0046 | 0.6373 ± 0.0011 | 0.601 ± 0.019 | 0.563 ± 0.026 | 0.535 ± 0.036
0.1 µM, coculture fibroblast: Hs27A | 0.73 ± 0.035 | 0.86 ± 0.16 | 0.829 ± 0.049 | 0.821 ± 0.044 | 0.877 ± 0.12 | 0.84 ± 0.12 | 0.814 ± 0.12 | 0.79 ± 0.11 | 0.731 ± 0.12
0.1 µM, coculture fibroblast: Hs343T | 0.75 ± 0.072 | 0.9112 ± 0.0054 | 0.783 ± 0.0089 | 0.718 ± 0.0049 | 0.651 ± 0.0094 | 0.593 ± 0.019 | 0.541 ± 0.028 | 0.519 ± 0.031 | 0.486 ± 0.025
0.1 µM, coculture fibroblast: WS1 | 0.8327 ± 0.0025 | 0.7439 ± 0.0041 | 0.681 ± 0.013 | 0.604 ± 0.016 | 0.538 ± 0.021 | 0.504 ± 0.018 | 0.476 ± 0.025 | 0.443 ± 0.023 | 0.431 ± 0.024
1 µM, coculture fibroblast: C12385 | 0.906 ± 0.025 | 0.837 ± 0.039 | 0.742 ± 0.064 | 0.678 ± 0.084 | 0.629 ± 0.082 | 0.595 ± 0.097 | 0.573 ± 0.11 | 0.555 ± 0.11 | 0.543 ± 0.12
1 µM, coculture fibroblast: H6013 | 0.957 ± 0.0099 | 0.8865 ± 0.0022 | 0.82935 ± 0.00023 | 0.79326 ± 0.00074 | 0.7602 ± 0.0021 | 0.7472 ± 0.0024 | 0.746 ± 0.022 | 0.74 ± 0.023 | 0.74 ± 0.024
1 µM, coculture fibroblast: H6019 | 0.8555 ± 0.001 | 0.782 ± 0.019 | 0.713 ± 0.026 | 0.629 ± 0.021 | 0.578 ± 0.023 | 0.562 ± 0.027 | 0.534 ± 0.011 | 0.516 ± 0.016 | 0.506 ± 0.013
1 µM, coculture fibroblast: H6076 | 0.757 ± 0.02 | 0.879 ± 0.046 | 0.771 ± 0.015 | 0.736 ± 0.026 | 0.699 ± 0.017 | 0.675 ± 0.029 | 0.668 ± 0.015 | 0.666 ± 0.02 | 0.657 ± 0.015
1 µM, coculture fibroblast: H6231 | 0.754 ± 0.01 | 0.9253 ± 0.0039 | 0.8142 ± 0.0032 | 0.726 ± 0.01 | 0.6721 ± 0.0067 | 0.6199 ± 0.0016 | 0.5892 ± 0.0054 | 0.5591 ± 0.0022 | 0.558 ± 0.013
1 µM, coculture fibroblast: HADF | 0.901 ± 0.049 | 0.912 ± 0.025 | 0.828 ± 0.044 | 0.804 ± 0.062 | 0.773 ± 0.082 | 0.736 ± 0.08 | 0.716 ± 0.086 | 0.703 ± 0.1 | 0.68 ± 0.11
1 µM, coculture fibroblast: HCFa | 0.866 ± 0.12 | 0.852 ± 0.024 | 0.861 ± 0.081 | 0.862 ± 0.18 | 0.826 ± 0.2 | 0.786 ± 0.2 | 0.747 ± 0.17 | 0.733 ± 0.18 | 0.704 ± 0.17
1 µM, coculture fibroblast: HCPF | 0.874 ± 0.02 | 0.9183 ± 0.0027 | 0.793 ± 0.028 | 0.745 ± 0.028 | 0.679 ± 0.021 | 0.62 ± 0.03 | 0.573 ± 0.023 | 0.565 ± 0.026 | 0.534 ± 0.02
1 µM, coculture fibroblast: HHSteC | 0.907 ± 0.018 | 0.821 ± 0.012 | 0.797 ± 0.017 | 0.721 ± 0.013 | 0.681 ± 0.02 | 0.651 ± 0.028 | 0.631 ± 0.033 | 0.619 ± 0.032 | 0.598 ± 0.029
1 µM, coculture fibroblast: HMF | 0.838 ± 0.051 | 0.942 ± 0.012 | 0.768 ± 0.0016 | 0.694 ± 0.013 | 0.627 ± 0.023 | 0.577 ± 0.019 | 0.529 ± 0.018 | 0.5 ± 0.032 | 0.465 ± 0.032
1 µM, coculture fibroblast: HPFa | 0.925 ± 0.013 | 0.8301 ± 0.0075 | 0.8371 ± 0.005 | 0.755 ± 0.013 | 0.7378 ± 0.0024 | 0.7061 ± 0.0044 | 0.6966 ± 0.0016 | 0.6887 ± 0.00065 | 0.662 ± 0.011
1 µM, coculture fibroblast: HUF | 0.899 ± 0.028 | 0.801 ± 0.029 | 0.725 ± 0.05 | 0.637 ± 0.046 | 0.584 ± 0.048 | 0.537 ± 0.056 | 0.514 ± 0.071 | 0.5 ± 0.072 | 0.486 ± 0.078
1 µM, coculture fibroblast: Hs5 | 0.791 ± 0.034 | 0.877 ± 0.0099 | 0.7875 ± 0.0024 | 0.7163 ± 0.0015 | 0.671 ± 0.01 | 0.622 ± 0.017 | 0.577 ± 0.02 | 0.549 ± 0.021 | 0.521 ± 0.017
1 µM, coculture fibroblast: Hs27A | 0.754 ± 0.066 | 0.866 ± 0.17 | 0.924 ± 0.08 | 0.924 ± 0.088 | 0.88 ± 0.11 | 0.862 ± 0.11 | 0.857 ± 0.12 | 0.84 ± 0.12 | 0.812 ± 0.13
1 µM, coculture fibroblast: Hs343T | 0.909 ± 0.088 | 0.8861 ± 0.0021 | 0.739 ± 0.034 | 0.682 ± 0.033 | 0.626 ± 0.022 | 0.583 ± 0.02 | 0.549 ± 0.023 | 0.549 ± 0.036 | 0.528 ± 0.033
1 µM, coculture fibroblast: WS1 | 0.862 ± 0.013 | 0.789 ± 0.037 | 0.718 ± 0.033 | 0.642 ± 0.011 | 0.578 ± 0.018 | 0.548 ± 0.03 | 0.513 ± 0.031 | 0.488 ± 0.023 | 0.473 ± 0.02
